The record followed here is publication PMC3897949.

The target in assay [1] is shortened PCAF HAT domain (amino acids 496-658) (human) (UniProt Q92831). Kind of assay: cross-linking; DSS cross-linking of the shortened HAT domain (496-658) without further mutations; data not shown; both purified.
The target in assay [2] is T1, PCAF HAT domain (amino acids 493-658), His-tagged (human), Q92831. The assay can be described thus: cross-linking; 1 mg/ml protein in 50 mM HEPES pH7.5, 50 mM sodium sulfate; DSS at 5X molar concentration, 1 h at room temperature; SDS-PAGE, coomassie blue; both purified. The settings on record: remark: other sources report otherwise.
For assay [3], the target named is T1, PCAF HAT domain (amino acids 493-658), …. The assay can be described thus: crystal structure; PCAF HAT domain with acetyl-CoA; crystals from 0.2 M lithium sulfate, 0.1 M HEPES pH7.4, 1.2 M ammonium sulfate, 10 mM trimethylamine HCl; space group P43, four HAT domains in one asymmetric unit; 2.31 Å; both purified. The settings on record: remark: other sources report otherwise.

Assay [4] has as its target MBP-PCAF HAT domain (amino acids 493-658) fusion protein (human), Q92831. Kind of assay: pull-down; MBP or MBP-PCAF (60 μg) rebound on amylose agarose beads with 60 μg His-tagged PCAF; 50 mM Tris pH8.0, 150 mM sodium chloride, 5 mM ß-ME, 3 mM EDTA, 2 h at 4°C; washes with 0.03% Triton X-100; SDS-PAGE, coomassie blue; both purified. The settings on record: remark: other sources report otherwise.

Results are given in words; binding and its absence hold for the method and conditions named. Some results given as binding are weak or reduced against the parent protein; the word gives no strength. For some of these results: Sequences can lack the tags named with a protein.

B1: shortened PCAF HAT domain (amino acids 496-658) (domain or fragment, UniProt Q92831 496-658)
chain: FHVVGNSLNQKPNKKILMWLVGLQNVFSHQLPRMPKEYITRLVFDPKHKTLALIKDGRVIGGICFRMFPSQGFTEIVFCAVTSNEQVKGYGTHLMNHLKEYHIKHDILNFLTYADEYAIGYFKKQGFSKEIKIPKTKYVGYIKDYEGATLMGCELNPRIPYTE
As to B1, the binding entry in assay [1] is given as “binds”.

B2: PCAF HAT domain (amino acids 493-658), His-tagged, Q92831 493-658 (domain or fragment)
chain: VIEFHVVGNSLNQKPNKKILMWLVGLQNVFSHQLPRMPKEYITRLVFDPKHKTLALIKDGRVIGGICFRMFPSQGFTEIVFCAVTSNEQVKGYGTHLMNHLKEYHIKHDILNFLTYADEYAIGYFKKQGFSKEIKIPKTKYVGYIKDYEGATLMGCELNPRIPYTE
Consider B2, for which the binding result in assay [2], in assay [3] and in assay [4] was “binds” each time.
